PubChem BioAssay AID1053208, Peter MacCallum Cancer Centre – 2014
In all, the deposit lists about 17,000 reagents; this is a random part of them. Over the whole deposit, 788 (4.7%) got an active call. 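Calls rest on z-score classes alone; an extra cut-off of viability at most 70% of control was not applied to them.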 Entries without a mark were called inactive. Some reagents were tested in more than one well and are listed for each. Not all columns of the deposit are shown.

Purpose: 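Synthetic lethal interactions between gene loss and doxorubicin in osteosarcoma cells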 (primary screen)
Cell system: mouse osteosarcoma cells, early-passage culture from an engineered mouse model of fibroblastic bone tumour
Knock-down reagent: siRNA pool against mouse genes, 40 nM
Time to read-out: about 120 h (48 h before drug, then 72 h with drug)
Conditions: doxorubicin 100 nM for 72 h, roughly 30-40% inhibitory dose
Read-out: 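Viability read as ATP luminescence after 72 h of 100 nM doxorubicin or none, duplicate wells averaged, scaled to non-targeting siRNA, then expressed as robust z-scores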
Direction: viability z-score with doxorubicin: higher = more viable cells under doxorubicin; viability z-score without drug: higher = more viable cells with knock-down alone
Call rule: 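Called active if knock-down leaves viability unchanged without drug (z within -2 to 2) but lowers it with doxorubicin (z at or under -2)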

With Radx (RPA1 related single stranded DNA binding protein, X-linked), what was measured?
combined z-score class: no change with or without drug; viability z-score with doxorubicin: 0.34; viability z-score without drug: 0.17

How did the screen score Fabp5 (fatty acid binding protein 5, epidermal)?
combined z-score class: no change with or without drug; viability z-score with doxorubicin: 0.9; viability z-score without drug: 0.17

For Olr1 (oxidized low density lipoprotein (lectin-like) receptor 1), what was measured?
combined z-score class: no change with or without drug; viability z-score with doxorubicin: 1.01; viability z-score without drug: 1.69

For Crybb1 (crystallin, beta B1), what does the deposit list?
combined z-score class: low cell count with doxorubicin only (active); viability z-score with doxorubicin: -2.25; viability z-score without drug: -1.18

What did the screen give for Kank1 (KN motif and ankyrin repeat domains 1)?
combined z-score class: no change with or without drug; viability z-score with doxorubicin: -0.67; viability z-score without drug: 0.51

For Mfap3 (microfibrillar-associated protein 3), what does the deposit list?
combined z-score class: no change with or without drug; viability z-score with doxorubicin: 0.79; viability z-score without drug: 0.17

How did the screen score Iqub (IQ motif and ubiquitin domain containing)?
combined z-score class: high cell count with and without drug; viability z-score with doxorubicin: 2.02; viability z-score without drug: 3.54

For Lrfn5, what does the deposit list?
combined z-score class: no change with or without drug; viability z-score with doxorubicin: -1.12; viability z-score without drug: -0.84

What is on record for Def6 (differentially expressed in FDCP 6)?
combined z-score class: no change with or without drug; viability z-score with doxorubicin: -1.01; viability z-score without drug: -0.84

For Slc6a9, how do the results read?
combined z-score class: high cell count with and without drug; viability z-score with doxorubicin: 2.02; viability z-score without drug: 2.53

For Il2rg (interleukin 2 receptor, gamma chain), what does the deposit list?
combined z-score class: no change with or without drug; viability z-score with doxorubicin: -0.67; viability z-score without drug: -0.84

What did the screen give for Aqp6 (aquaporin 6)?
combined z-score class: no change with or without drug; viability z-score with doxorubicin: 0.22; viability z-score without drug: -0.84

For Cebpa (CCAAT/enhancer binding protein alpha), what was measured?
combined z-score class: no change with or without drug; viability z-score with doxorubicin: 0; viability z-score without drug: -0.51

For Kcnq2 (potassium voltage-gated channel, subfamily Q, member 2), what does the deposit list?
combined z-score class: no change with or without drug; viability z-score with doxorubicin: 1.01; viability z-score without drug: -0.17

What is on record for Dnm1l (dynamin 1-like)?
combined z-score class: no change with or without drug; viability z-score with doxorubicin: 0.11; viability z-score without drug: -0.17

With Tmem108 (transmembrane protein 108), what does the deposit list?
combined z-score class: no change with or without drug; viability z-score with doxorubicin: 0.79; viability z-score without drug: 0.51

Which result is listed for Nup160 (nucleoporin 160)?
combined z-score class: low cell count with and without drug; viability z-score with doxorubicin: -5.06; viability z-score without drug: -8.26

What did the screen give for Chl1 (cell adhesion molecule L1-like)?
combined z-score class: no change with or without drug; viability z-score with doxorubicin: -0.11; viability z-score without drug: -0.51

For Rfpl4 (ret finger protein-like 4), what was measured?
combined z-score class: low cell count with doxorubicin only (active); viability z-score with doxorubicin: -2.14; viability z-score without drug: -1.85

For Dstyk (dual serine/threonine and tyrosine protein kinase), what was measured?
combined z-score class: no change with or without drug; viability z-score with doxorubicin: -0.34; viability z-score without drug: -0.17

How did the screen score Gramd4 (GRAM domain containing 4)?
combined z-score class: no change with or without drug; viability z-score with doxorubicin: 0.56; viability z-score without drug: 0.67

With Tm4sf20 (transmembrane 4 L six family member 20), how do the results read?
combined z-score class: high cell count without drug only; viability z-score with doxorubicin: -0.9; viability z-score without drug: 2.19

What is on record for Map4k5 (mitogen-activated protein kinase kinase kinase kinase 5)?
combined z-score class: low cell count with doxorubicin only (active); viability z-score with doxorubicin: -2.02; viability z-score without drug: -1.85

With Map4k5 (mitogen-activated protein kinase kinase kinase kinase 5), what was measured?
combined z-score class: no change with or without drug; viability z-score with doxorubicin: -0.45; viability z-score without drug: 1.18

For Ccnt1 (cyclin T1), what does the deposit list?
combined z-score class: no change with or without drug; viability z-score with doxorubicin: -0.11; viability z-score without drug: -0.84

With Fbxl12os (F-box and leucine-rich repeat protein 12, opposite strand), how do the results read?
combined z-score class: high cell count without drug only; viability z-score with doxorubicin: 1.01; viability z-score without drug: 2.02

For Dgkz (diacylglycerol kinase zeta), how do the results read?
combined z-score class: no change with or without drug; viability z-score with doxorubicin: 0.34; viability z-score without drug: -1.18

For Samsn1 (SAM domain, SH3 domain and nuclear localization signals, 1), how do the results read?
combined z-score class: no change with or without drug; viability z-score with doxorubicin: -0.45; viability z-score without drug: 0.51
